The assay concerns the target LOV domain of White Collar 1 (WC-1) bound to the Gal4 DNA binding domain (Neurospora crassa) (UniProt Q01371). Briefly: two-hybrid; FUN-LOV switch in S. cerevisiae; destabilized firefly luciferase reporter under P_(GAL1) or P_(5XGAL1); luminescence of living cells normalised by OD600; constant white light (100 µmol m^-2 s^-1) or constant blue light (20 µmol m^-2 s^-1), 30°C; fold induction against the average background in constant darkness.

The chains behind the UniProt entries cited, without tags or fusion partners. Where a name states a change or a piece, a line headed by the entry shows the natural chain unless it says otherwise. A line that says so, or that is headed by a name, gives the form on record, which may keep a tag or linker.
UniProt Q01371: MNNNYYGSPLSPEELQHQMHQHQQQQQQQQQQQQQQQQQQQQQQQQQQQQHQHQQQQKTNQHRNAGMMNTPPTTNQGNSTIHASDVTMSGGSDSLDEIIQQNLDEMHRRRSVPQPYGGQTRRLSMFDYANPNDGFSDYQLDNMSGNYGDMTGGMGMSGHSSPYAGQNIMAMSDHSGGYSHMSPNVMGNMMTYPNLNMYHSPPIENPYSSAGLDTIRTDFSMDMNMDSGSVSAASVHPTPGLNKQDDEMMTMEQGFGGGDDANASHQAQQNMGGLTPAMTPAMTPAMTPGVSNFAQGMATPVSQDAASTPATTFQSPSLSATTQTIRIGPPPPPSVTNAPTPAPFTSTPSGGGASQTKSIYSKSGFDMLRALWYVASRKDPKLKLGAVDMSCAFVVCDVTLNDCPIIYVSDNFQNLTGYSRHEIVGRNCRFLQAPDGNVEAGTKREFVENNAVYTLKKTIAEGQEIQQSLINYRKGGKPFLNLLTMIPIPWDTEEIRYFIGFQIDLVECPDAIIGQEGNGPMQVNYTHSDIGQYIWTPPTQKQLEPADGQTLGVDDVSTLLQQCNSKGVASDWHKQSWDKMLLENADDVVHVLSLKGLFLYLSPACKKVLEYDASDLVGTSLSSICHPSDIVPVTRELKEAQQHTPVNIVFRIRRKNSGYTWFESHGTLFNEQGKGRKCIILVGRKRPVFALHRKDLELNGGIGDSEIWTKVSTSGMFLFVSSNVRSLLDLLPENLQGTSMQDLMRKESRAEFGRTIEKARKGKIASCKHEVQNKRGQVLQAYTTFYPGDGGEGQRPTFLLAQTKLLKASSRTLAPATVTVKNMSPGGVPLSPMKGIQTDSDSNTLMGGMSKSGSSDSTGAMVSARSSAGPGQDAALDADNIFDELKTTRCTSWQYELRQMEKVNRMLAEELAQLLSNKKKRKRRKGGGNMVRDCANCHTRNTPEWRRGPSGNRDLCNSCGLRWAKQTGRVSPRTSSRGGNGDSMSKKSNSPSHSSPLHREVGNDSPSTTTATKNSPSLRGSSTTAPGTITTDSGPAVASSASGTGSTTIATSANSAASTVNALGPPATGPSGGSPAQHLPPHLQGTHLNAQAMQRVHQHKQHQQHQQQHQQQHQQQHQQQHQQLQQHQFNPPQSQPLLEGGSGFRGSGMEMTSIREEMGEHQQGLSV
full-length VIVID (VVD) tethered to the Gal4 transactivation domain (Q9C3Y6, form named): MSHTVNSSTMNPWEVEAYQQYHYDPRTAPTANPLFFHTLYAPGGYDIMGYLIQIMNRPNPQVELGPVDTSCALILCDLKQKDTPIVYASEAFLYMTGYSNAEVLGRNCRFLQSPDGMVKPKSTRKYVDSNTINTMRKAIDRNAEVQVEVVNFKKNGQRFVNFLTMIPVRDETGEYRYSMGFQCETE

These are yes or no findings as the source states them, for the method shown. Binding can be weak; no strength is given.

For “full-length VIVID (VVD) tethered to the Gal4 transactivation domain (from UniProt Q9C3Y6 1-186)”, the binding result is “binds”.
